# Library screening results

By UniProt entry, the sequences of proteins in these tests, tags left out.
UniProt E9BF75, entry or part of it: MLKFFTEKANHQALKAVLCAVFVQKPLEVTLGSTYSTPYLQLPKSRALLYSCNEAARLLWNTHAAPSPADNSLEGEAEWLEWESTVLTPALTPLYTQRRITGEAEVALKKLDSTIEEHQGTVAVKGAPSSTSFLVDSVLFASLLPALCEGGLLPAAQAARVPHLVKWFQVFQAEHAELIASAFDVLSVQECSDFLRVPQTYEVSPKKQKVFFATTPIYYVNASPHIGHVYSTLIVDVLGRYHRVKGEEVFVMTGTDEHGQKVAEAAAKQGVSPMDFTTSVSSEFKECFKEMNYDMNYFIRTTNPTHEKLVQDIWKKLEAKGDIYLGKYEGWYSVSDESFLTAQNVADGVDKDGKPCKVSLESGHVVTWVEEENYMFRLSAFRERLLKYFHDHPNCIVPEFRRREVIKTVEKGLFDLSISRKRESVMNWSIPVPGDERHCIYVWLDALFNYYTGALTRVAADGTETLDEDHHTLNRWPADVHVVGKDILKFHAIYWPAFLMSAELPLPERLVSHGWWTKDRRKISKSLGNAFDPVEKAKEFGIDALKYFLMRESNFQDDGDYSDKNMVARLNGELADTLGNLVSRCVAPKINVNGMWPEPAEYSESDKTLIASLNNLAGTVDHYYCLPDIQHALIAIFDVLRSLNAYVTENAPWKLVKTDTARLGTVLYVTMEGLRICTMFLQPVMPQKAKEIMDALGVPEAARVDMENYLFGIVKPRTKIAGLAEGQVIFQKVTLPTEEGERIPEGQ

The values are deposited in ChEMBL (CHEMBL3988442, “University of Dundee, Small-Polar-MMV Screening Library” (2021)).

LdMetRS: 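Methionyl-tRNA synthetase (putative), Leishmania donovani (UniProt E9BF75). Primary screen of methionyl-tRNA synthetase; the read-out is not stated. The test concentration is not given. Values are per cent inhibition. Size under these conditions: about 68,000 compounds, about 24 of them at 50% or above in at least one test.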
Mtb heat-shock: 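Assay on Mycobacterium tuberculosis, filed only as a heat shock assay from Cornell; the read-out is not stated. The concentration is filed as 10 mM, unlikely as a test dose, so the dose is not known. The record gives no direction; compounds that gave an IC50 in retests scored well above the rest, so higher reads as stronger inhibition. Of about 69,000 compounds tested this way, about 930 (1.4%) reached 50% or more in at least one test.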

All values are in %.
The controls that fix the scale are not given in the record; negative values are as filed.
Compounds were drawn at random from those tested, without regard to their results.
A dash means the value is not listed here; it may have been measured.

Compound	LdMetRS	Mtb heat-shock
CCOCCNC(=O)Nc1cccc(-c2nccn2C)c1	6.367	5.953
O=C(Nc1ccc(CCN2CCC(O)CC2)cc1)C1CCCOC1 (stereo not given)	6.667	19.24
N#Cc1ccc(N2CCN(c3cnccn3)CC2)c(C(F)(F)F)c1	16.23	-1.375
CCCN(C(=O)CN1CCn2c(nnc2C2CC2)C1)C1=CCCCC1	18.68	13.21
CS(=O)(=O)NCCC1CCCN(Cc2ccccc2F)C1 (stereo not given)	10.56	-5.305
O=C(C1CC2(CCNCC2)CN1)N1CCN(c2ccccc2)CC1 (stereo not given)	1.882	-23.69
CCS(=O)(=O)N1CCCC2(COCCN(c3cnccn3)C2)C1 (stereo not given)	14.6	-
O=C(C1CC1)N1CCC(c2nc(O)c3c(n2)CN(C2CCCC2)CC3)C1 (stereo not given)	-2.604	4.765
O=C1CCC2(CCN(S(=O)(=O)c3ccccc3)CC2)N1CC1CC1	5.556	-7.069
Cc1cc(C2CCCN(CCS(=O)(=O)c3ccccc3)C2)n[nH]1 (stereo not given)	13.89	-2.951
COc1ccc(Cl)cc1-c1cc(NC(=O)CNC(=O)C2CC2)[nH]n1	10.1	2.869
Cc1ccc(C(=O)O)cc1CNC(=O)CN1CC(C)(C)[C@@](C)(O)C1	11.2	-4.082
[H][C@@]12COC[C@]1(c1nc(C)no1)CN(C(=O)COCC)C2	-	49.67
CCc1ccc(CNC(=O)N2CCN(Cc3cc(C)on3)CC2)s1	10.84	-6.63
CC(NC(=O)c1ccoc1)C(=O)N(C)Cc1ccc(O)cc1 (stereo not given)	6.407	13.09
CC(C)CC(NC(=O)c1ccco1)c1nc2cccnc2n1C (stereo not given)	3.723	-10.38
Cc1nc(CN2CCN(S(=O)(=O)N3CCOCC3)CC2)oc1C	7.542	-10.14
CC1(C)CN(C(=O)c2cnc(CN3CCCC3)s2)CC[C@]1(C)O	14.97	-19.62
O=C(Cc1cn2ccccc2n1)N1CCCC(n2cccn2)C1 (stereo not given)	14.21	-54.88
[H][C@@]12CCCO[C@]1([H])[C@H](OCC1CCOCC1)CN2C(=O)c1occc1C	-	-18.53
CCN1CC(COC(=O)c2cc(C)nn2CC)CC1=O (stereo not given)	8.683	4.167
O=C(NCCc1cc(N2CCOCC2)nc(NC2CC2)n1)C1CCCO1 (stereo not given)	8.721	-2.01
Cc1ccc(NC(=O)c2cnc(N3CCN(C)CC3)nc2C)cc1C	17.31	10.73
Cc1cc(C(=O)NCCN2CCN(S(C)(=O)=O)CC2)no1	7.971	-
CCc1nc2n(n1)CCCC2Nc1nc(C(C)C)ns1 (stereo not given)	16.42	2.779
COc1cccc(-c2noc3c2CN(c2nc(C)ncc2C)CC3)c1	14.99	19.73
COc1ccc(Cl)cc1NC(=O)CCC1CCCN(Cc2ncon2)C1 (stereo not given)	8.052	7.807
NC(=O)C1CCN(C(=O)NCCOc2ccc3c(c2)CCC3)CC1	17.71	0.5402
CN1CCc2nc(C3CCCN(C(=O)CC4CCCCC4)C3)ncc2C1 (stereo not given)	13.88	-14.45
O=C(O)c1cnc(OCC2CC2)c(Br)c1	16.17	22.35
CC(C)c1nc(C2CCCN(C(=O)c3ccc(N(C)C)nn3)C2)no1 (stereo not given)	19.37	-7.916
CN(C)S(=O)(=O)N1CC[C@]2(O)CCN(Cc3cccc(F)c3)C[C@@H]2C1	12.89	-
O=C(CCc1ccco1)Nc1cc(C(F)(F)F)c[nH]c1=O	18.29	-7.508
Cc1occc1C(=O)N1CCC2(CC1)CC(c1cccnc1)C(=O)N2C (stereo not given)	13.81	25.16
NC(=O)CN1CCCC1c1ccccc1Br (stereo not given)	16.49	-7.822
CN(C)c1nc(N)nc(CN2CCCC2c2ccsc2)n1 (stereo not given)	21.5	64.16
CN(CCCc1cc(-c2ccccc2)n[nH]1)C(=O)CCCn1cncn1	17.13	-16.19
COc1ccc2cc(C3CN(C(=O)CN4CCCC4)CCO3)ccc2c1 (stereo not given)	12.01	46.51
FC(F)(F)Oc1ccc(CN2CCCC(n3cncn3)C2)cc1 (stereo not given)	13.94	-0.5434
Cc1nn(C)c2nc(N3CCCCC3c3cccnc3)sc12 (stereo not given)	20.36	12.05
CCCS(=O)(=O)N1CCN(c2ccc3nnc(CC)n3n2)CC1	9.296	-10.14
COCc1ncc(CN2CCC(Oc3ccccc3C)CC2)cn1	16.21	-6.659
COc1ccc(NC(=O)N(C)Cc2ccsc2)cn1	26.2	-11.71
COc1ccc(C(C)C)cc1C1CC(=O)NCc2nc(N(C)C)sc21 (stereo not given)	9.067	-6.324
C=C(C)CNc1nc(CS(=O)(=O)c2ccccc2)cs1	14.84	-0.4398
O=C(O)C(F)(F)F.O=C(O)C(F)(F)F.[H][C@@]12CCCO[C@]1([H])[C@H](OCc1ccncc1)CN2Cc1ccoc1	-	21.84
CC(C)c1cc(NC(=O)CN2CCc3cncnc3C2)on1	16.6	7.949
Cc1ncccc1O[C@H]1CCN(C(=O)c2cccs2)CC[C@@H]1O	11.3	15.62
CCN1CCC2(COCc3c(C)nc(N4CCOCC4)nc32)C1 (stereo not given)	1.718	-34.29
Cc1cnc(N2CCC3(CC2)CC3CN(C)Cc2cccnc2)nc1.O=C(O)C(F)(F)F.O=C(O)C(F)(F)F (stereo not given)	-	-31.78
CCOc1ccccc1C(=O)NCc1nncn1C1CC1	4.749	-16.34
O=S(=O)(NCC(c1ccsc1)N1CCCCCC1)c1cccs1 (stereo not given)	12.39	-4.944
O=C(NCCOc1ccc(Cl)cc1)N1CCS(=O)(=O)CC1	12.88	5.214
CCC(=O)Nc1ccc2c(c1)C1(CCOCC1)CN2CCF.O=C(O)C(F)(F)F	-	28.61
O=C1CCC(C(=O)N2CCC(Cn3cc(C4CCCC4)nn3)CC2)=NN1	24.01	7.672
Cc1occc1C(=O)NCC(O)c1ccc(Cl)s1 (stereo not given)	19.16	9.012
CC(C)c1nc(CN2CCC(CO)CC2)cs1	1.031	17.89
Cc1ccccc1C(C(=O)NCCSC(F)(F)F)N(C)C (stereo not given)	12.33	16.23
Cc1cnn(CC2CCCCN2C(=O)Cc2c(C)noc2Cl)c1 (stereo not given)	5.96	-3.866
C=C(C)COc1ccccc1CN1CCCC(C(=O)NCCCO)C1 (stereo not given)	12.27	12.58
COCCN1C(=O)CCC12CCN(C(=O)NC(C)C)CC2	5.051	-20.88
O=C(NCCn1cnnc1C1CC1)c1c(O)cc(F)cc1F	16.67	3.666
CC(=O)Nc1ccc(CNCc2cccnc2N(C)C)cc1	12.83	-2.756
COc1ccc(OC)c2c(C)cc(N(C)CCCO)nc12	10.57	13.15
O=C(C1COc2ccccc2O1)N1Cc2cnn(CCO)c2C1 (stereo not given)	1.337	15.55
O=C(O)c1cn(CC2CCCN(c3nc4ccccc4s3)C2)nn1 (stereo not given)	5.775	-15.91
Cc1ccc(CNC(=O)NC2CCCN(c3ncccn3)C2)cn1 (stereo not given)	10.97	-9.193
Cc1ccc(CNC(=O)C2c3c(ncn3C(C)C)CCN2S(C)(=O)=O)o1 (stereo not given)	16.3	-20.18
O=C1CC[C@H]2CN(c3ncc(F)cn3)CC[C@H]2N1CCc1c[nH]cn1	10.07	-
CSc1nnc(C2CCN(C(=O)N3CCCC3)CC2)n1C	10.59	1.28
CCN1CCN(c2ccc(CNC(=O)c3c(C)noc3C)cn2)CC1	8.392	-10.61
[H][C@]12CN(Cc3cccnc3OC)CC[C@@]1(O)CCN(C(=O)COC)C2	-	13.52
CS(=O)(=O)c1ccc(NCc2ccccc2)cn1	18.55	-4.585
COc1cccc(COC(C)C(=O)NC2CCN(CC(N)=O)CC2)c1 (stereo not given)	13.92	-1.876
CC(C)N(C)C(=O)C1=NOC2(CCN(C(=O)c3cccn3C)C2)C1 (stereo not given)	12.88	-11.72
CCS(=O)(=O)N1CCC2(CC1)CC[C@@]1(C(=O)NC)CN(C(C)=O)C[C@@H]21	4.53	-

Some entries from above, unchanged:

Compound,LdMetRS,Mtb heat-shock
CSc1nnc(C2CCN(C(=O)N3CCCC3)CC2)n1C,10.59,1.28
CCN1CCN(c2ccc(CNC(=O)c3c(C)noc3C)cn2)CC1,8.392,-10.61
CC(=O)Nc1ccc(CNCc2cccnc2N(C)C)cc1,12.83,-2.756
FC(F)(F)Oc1ccc(CN2CCCC(n3cncn3)C2)cc1 (stereo not given),13.94,-0.5434
CN(C)c1nc(N)nc(CN2CCCC2c2ccsc2)n1 (stereo not given),21.5,64.16
Cc1ccc(CNC(=O)C2c3c(ncn3C(C)C)CCN2S(C)(=O)=O)o1 (stereo not given),16.3,-20.18
CN1CCc2nc(C3CCCN(C(=O)CC4CCCCC4)C3)ncc2C1 (stereo not given),13.88,-14.45